Among the data in ChEMBL document CHEMBL4513149, “CO-ADD screening of MMV (CH) - MMV compounds” (2021) are Inhibition values, retold here.

The list shows a part of the results. Entries with a potency or affinity are not part of this list.

This assay concerns Acinetobacter baumannii. To be noted: Concentration 20 uM; ASSAY_TEST Inhibition of Bacterial Growth; detection method Absorption (OD600); MEDIA CAMHB; plate type 384well; NBS; CORNING #3640; time 18 hr.
The term Inhibition denotes the drop in the measured response relative to a control, in per cent. `Brc1c(-c2ccc3c(c2)OCO3)nc2ncccn12`: the Inhibition is 9.07%.
The value for `Cc1cnc(N2CCN[C@@H](Cc3ccccc3)C2)nc1Oc1ccc(-n2ccnc2)cc1.Cl` was 12.05%; that for `CCCCN(CCCC)c1c(C#N)cc(S(=O)(=O)Nc2ccccc2)cc1C#N` was 4.78%.
Turning to `CCCNC(=O)N1CCC2(CC1)CC(=O)c1cc(C)ccc1O2`, the Inhibition is 10.32%.
The same measure for `CCC(C)NC(=O)c1ccc(NC(=O)C2(c3ccccc3)CCCC2)cc1` (centres undefined): 7.16%; for `Cc1cc(Cl)c(S(=O)(=O)N2CCCC2)cc1OCC(=O)NC1CCCCC1`: 4.57%; for `O=C(NC1CC1)c1ccc(CSCc2ccccc2Cl)o1`: 3.54%.
The same measure for `COc1ccc(-c2cnc3ccc(N4CCCC4)nn23)cc1OC`: 10.59%; for `CNc1nnc(Sc2cnn(-c3ccccc3)c(=O)c2Cl)s1`: 2.31%.
The value for `COC(=O)c1ccc(F)cc1NS(=O)(=O)c1cccc(-c2cnn(Cc3ccccc3)c2)c1` was -6.13%; that for `COc1cc(C(F)(F)F)nc2ccc(C)c(N)c12` was 9.33%.
Take `O=C(c1[nH]nc2c1CCCC2)N1CCN(Cc2ccc3c(c2)OCO3)CC1`: the Inhibition is given as 5.53%.
The value for `CC(Oc1ccccc1)C(=O)Nc1nc(-c2ccccn2)cs1` (centres undefined) was 9.37%; that for `Nc1ncc(-c2ccc(C(F)(F)F)nc2)cc1-c1ccc(C(F)(F)F)nc1` was -2.69%; that for `Cc1cc(C)c2cc(C(=O)NC3CCCCCCC3)[nH]c2c1` was 6.38%.
As for `Cc1ccc2[nH]c(C3CCCNC3)c(-c3ccncc3)c2c1.Cl.Cl` (centres undefined), the Inhibition is given as -1.93%.
The value for `CCCCc1ccc(C(=O)Nc2nccc3ccccc23)nc1` was 12.68%.
For the compound `CC(=O)Nc1ccc(-c2noc(CC3CCCN(Cc4cccc(F)c4C)C3)n2)cc1` (centres undefined), the Inhibition was 6.04%.
For the compound `Cc1ccc(NC(=O)CC2COc3ccccc3O2)cc1Cl` (centres undefined), the Inhibition came to 3.82%.
The same measure for `CCc1cc(=O)n(C)c(SC(C)C(=O)Nc2ccc(F)cc2)n1` (centres undefined): 0.57%; for `FC(F)(F)c1cccc(-c2nc3c(NCc4ccncc4)nccc3[nH]2)c1`: -4.54%; for `CNC(=O)c1cc(S(=O)(=O)N2CCN(c3ccccn3)CC2)cs1`: 8.13%.
The value for `O=C1Nc2ccc(Br)cc2C12NCCc1c2[nH]c2ccccc12` (centres undefined) was 7.8%.
The value for `CN1CCN(S(=O)(=O)c2ccc(-c3ccc4c(Nc5ccc6nn[nH]c6c5)ccnc4c3)cc2)CC1` was 4.74%; that for `COc1ccccc1OCCCCn1c(C2CC2)nc2ccccc21` was 10.96%.
For `CC(C(=O)N1CCCC1)N1CCN(S(=O)(=O)c2ccc(C(C)(C)C)cc2)CC1` (centres undefined), the Inhibition is 4.82%.
Take `COc1ccc(S(=O)(=O)Nc2ccc(CN3CCN(C(=O)c4cccc(C#N)c4)CC3)cc2)cc1`: the Inhibition turned out to be 7.55%.
The value for `CS(=O)(=O)c1ccc(C(=O)N(CC2CCCO2)c2nc3ccccc3s2)cc1[N+](=O)[O-]` (centres undefined) was -2.48%.
The same measure for `O=C(c1cc2ccccc2o1)N1CCN(Cc2ccc3c(c2)OCO3)CC1`: 8.3%.
As for `CC(=O)N1CCc2cc3nc(C)cc(C)c3cc21`, the Inhibition is on record as 10.62%.
The same measure for `CN1CCN(S(=O)(=O)c2ccc(-c3ccc4c(Nc5ncc(Cl)cn5)ccnc4c3)cc2)CC1`: 11.8%; for `COc1ccc(-c2cnc3ccc(NCc4ccc(S(N)(=O)=O)cc4)nn23)cn1`: 11.24%; for `FC(F)(F)c1nnc2ccc(Cl)nn12`: 8.19%.
For the compound `COc1ccc(Cl)cc1NC(=O)CN(C)C(=O)c1cnn(-c2ccccc2)n1`, the Inhibition was 14.66%.
As for `CCN(CC)C(=O)N1CCN(C)CC1` [DIETHYLCARBAMAZINE], the Inhibition is on record as 9.65%.
On to `COc1cc(Br)cc2cc(C(=O)Nc3cccc(C(F)(F)F)c3)c(=O)oc12`, for which the Inhibition worked out at 11.35%.
The same measure for `COC(=O)c1c(NC(=O)c2c(F)c(F)c(F)c(F)c2F)sc2c1CCCCC2`: 10.17%; for `Cc1cc(Nc2ccncc2)n2nc(C)c(-c3ccccc3Cl)c2n1`: 12.16%.
Turning to `CNc1cc(C)nc(C2CN(C(=O)c3n[nH]c4ccccc34)CCO2)c1` (centres undefined), the Inhibition turned out to be 18.6%.
Regarding `CCNC(=O)C(C)Nc1nc(-c2cccnc2)nc2sc(C)c(C)c12` (centres undefined), the Inhibition is recorded as 2.11%.
The value for `Cc1cccc(-c2nc(Nc3ccncn3)c3sccc3n2)n1` was 3.02%.
For the compound `CS(=O)(=O)N1CCC(Cn2nc(Cc3cccc4ccccc34)c3c(N)ncnc32)CC1`, the Inhibition was 9.09%.
The value for `CC(C)(C)c1cc(C(=O)N2CCN(c3nccnc3C#N)CC2)n(Cc2ccccc2)n1` was 11.89%; that for `Cc1ccc(S(=O)(=O)N2CCN(C(=O)c3cc(-c4ccccc4)n[nH]3)CC2)cc1` was -2.29%; that for `CCOc1ccc2cc(-c3nn(C(C)(C)C)c(N)c3C(N)=O)cnc2c1.Cl` was 14.53%.
The same measure for `O=C(CCC1CCCCC1)Nc1cccc(-c2nnc(-c3ccco3)o2)c1`: 9.52%.
Consider `CC(C)n1ncc2c(C(=O)NCC(c3cccs3)N3CCOCC3)cc(-c3ccccc3)nc21` (centres undefined), for which the Inhibition is given as 6.63%.
Consider `COc1ccc(C2=NN(C3CCCCCC3)C(=O)[C@@H]3CC=CC[C@H]23)cc1OCCCCOc1ccc(-c2nnn[nH]2)cc1`, for which the Inhibition is 4.92%.
The value for `COc1ccc(C2=NCCN2)cc1-c1cn(-c2cccc(C3=NCCN3)c2)nn1.O=C(O)C(F)(F)F.O=C(O)C(F)(F)F` was 11.69%; that for `CCCn1nnc(NC(=O)COc2ccc(C3CCCCC3)cc2)n1` was 9.09%.
The same measure for `Clc1cccc(CO[C@H]2CCc3ccccc3[C@@H]2n2ccnn2)c1`: -3.18%; for `CCn1ncc2c(NC3CCOCC3)c(CNC(=O)c3ccnn3C)c(C)nc21`: -4.21%; for `CC(C)C(Oc1cccc2ccccc12)C(=O)O` (centres undefined): 4.75%.
The value for `CC1(C)Cc2c(c(N3CCOCC3)nc3snc(Br)c23)CO1` was 1.33%.
